The EC50 is the concentration giving half of the maximal effect.

SMILES strings stand for the structures. A value given as a limit tells only on which side of the number the result lay.

This is an account of results in paper PMC10936414 (mBio, 2024).

In experiment [1] the test system is VSV-SARS-CoV-2. Briefly: organism not typed. The class given is cell-based. As to conditions: MA104, read-out: EC50 against VSV-SARS-CoV-2, MA104 cells, pre-treated 1 h, 24 h infection, MOI = 1, GFP signal.
For experiment [2], the system named is VSV. Briefly: microbe, parasite or virus in culture. The class given is cell-based. To be noted: Vesicular stomatitis virus, MA104, read-out: EC50 against VSV.

Regarding `CN[C@@H]1C[C@H]2O[C@@](C)([C@@H]1OC)n1c3ccccc3c3c4c(c5c6ccccc6n2c5c31)C(=O)NC4` [Staurosporine, staurosporine], the EC50 was less than 10 nM in experiment [1] and 100 nM in experiment [2].
